{"source": "PubChem BioAssay AID1224830 (NIAID, 2016)", "assay": "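Host factors that control LPS-induced TNF expression in human macrophages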 (primary screen)", "system": "human THP-1 monocytic leukaemia cells, TNF dual-luciferase reporter clone, PMA-differentiated to macrophage-like cells", "knock-down reagent": "siRNA pool against human genes, 50 nM", "duration": "LPS for 4 h, given about 3 days after siRNA transfection", "treatment": "bacterial LPS (TLR4 ligand), 10 ng/ml", "measured": "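Ratio of firefly to renilla light, scaled to the plate median and expressed as a robust z-score per replicate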", "reading the numbers": "TNF reporter robust z-score: higher = stronger TNF reporter response to LPS", "rule for the call": "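a well is active when its z-score exceeds 2.8 or falls below -1.5; control wells carry no call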", "note": "The deposit covers about 18,000 reagents; shown is an unselected part. Of all reagents, about 2,900 (16%) got an active call. 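Calls are made per well; low scores hint the gene aids the LPS response, high scores that it dampens it.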 A number with no mark means an inactive call. Repeated entries: four replicate wells of each siRNA pool."}
{"target":"TSR3 (TSR3 ribosome maturation factor)","TNF reporter robust z-score":0.31}
{"target":"TSR3 (TSR3 ribosome maturation factor)","TNF reporter robust z-score":0.28}
{"target":"TSR3 (TSR3 ribosome maturation factor)","TNF reporter robust z-score":-1.02}
{"target":"TSR3 (TSR3 ribosome maturation factor)","TNF reporter robust z-score":-0.52}
{"target":"SCAF4 (SR-related CTD associated factor 4)","TNF reporter robust z-score":1.47}
{"target":"SCAF4 (SR-related CTD associated factor 4)","TNF reporter robust z-score":"3.89 (active)"}
{"target":"SCAF4 (SR-related CTD associated factor 4)","TNF reporter robust z-score":"2.93 (active)"}
{"target":"SCAF4 (SR-related CTD associated factor 4)","TNF reporter robust z-score":1.92}

Not a retest: entries from further up.
{"target":"TSR3 (TSR3 ribosome maturation factor)","TNF reporter robust z-score":-0.52}
{"target":"SCAF4 (SR-related CTD associated factor 4)","TNF reporter robust z-score":1.47}

Further records follow.
{"target":"MAP3K14 (mitogen-activated protein kinase kinase kinase 14)","TNF reporter robust z-score":1.25}
{"target":"MAP3K14 (mitogen-activated protein kinase kinase kinase 14)","TNF reporter robust z-score":0.16}
{"target":"MAP3K14 (mitogen-activated protein kinase kinase kinase 14)","TNF reporter robust z-score":0.23}
{"target":"MAP3K14 (mitogen-activated protein kinase kinase kinase 14)","TNF reporter robust z-score":-0.79}
{"target":"EPHA3 (EPH receptor A3)","TNF reporter robust z-score":-0.25}
{"target":"EPHA3 (EPH receptor A3)","TNF reporter robust z-score":-0.3}
{"target":"EPHA3 (EPH receptor A3)","TNF reporter robust z-score":0.34}
{"target":"EPHA3 (EPH receptor A3)","TNF reporter robust z-score":-1.2}
{"target":"ATP5MC3 (ATP synthase membrane subunit c locus 3)","TNF reporter robust z-score":1.18}
{"target":"ATP5MC3 (ATP synthase membrane subunit c locus 3)","TNF reporter robust z-score":0.33}
{"target":"ATP5MC3 (ATP synthase membrane subunit c locus 3)","TNF reporter robust z-score":1.11}
{"target":"ATP5MC3 (ATP synthase membrane subunit c locus 3)","TNF reporter robust z-score":0.13}
